Results from patent publication US20080145383A1, “Method for Solubilizing Peptide Mixtures” (priority 2004, published 2008).
Like-named read-outs stand apart in the source and are kept apart here. Part of at least one peptide drawing is inferred or uncertain, most often the ends. The name of at least one read-out is uncertain. Some of these results come from one statement about several compounds together. Peptide text beside a SMILES is read from it.

[1] = optimized suspension formulation, 2 months at 37° C.

Structure (SMILES) | recovery of peptide [1] [%] | recovery of peptide (suspension formulation stored at room temperature (Figure C)) [%]
CC[C@H](C)[C@H](NC(=O)[C@@H](NC(=O)[C@H](C)NC(=O)[C@@H](NC(=O)[C@H](CO)NC(=O)[C@H](CO)NC(=O)[C@H](CCCCN)NC(=O)[C@H](CC(C)C)NC(=O)[C@H](CC(=O)O)NC(=O)[C@H](CO)NC(=O)[C@@H](N)C(C)C)[C@@H](C)O)C(C)C)C(=O)N1CCC[C@H]1C(=O)NCC(=O)N[C@@H](Cc1ccc(O)cc1)C(=O)N1CCC[C@H]1C(=O)N[C@H](C(=O)N[C@@H](C)C(=O)NCC(=O)N[C@@H](CCC(N)=O)C(=O)N[C@H](C(=O)O)C(C)C)C(C)C [Peptide 1240] (H-VSDLKSSTAVIPGYPVAGQV-OH; N-terminus and C-terminus assumed) | < 90 | 
CC(C)C[C@H](NC(=O)[C@H](Cc1ccccc1)NC(=O)[C@@H](N)CC(N)=O)C(=O)N[C@@H](CC(C)C)C(=O)N1CCC[C@H]1C(=O)N[C@@H](CC(=O)O)C(=O)N[C@@H](C)C(=O)N[C@@H](CCC(N)=O)C(=O)N[C@@H](C)C(=O)N[C@@H](C)C(=O)N[C@@H](C)C(=O)N[C@@H](C)C(=O)NCC(=O)N[C@@H](Cc1ccccc1)C(=O)N[C@@H](C)C(=O)N[C@@H](CO)C(=O)N[C@@H](CCCCN)C(=O)O [Peptide 1241] (H-NFLLPDAQAAAAGFASK-OH; N-terminus and C-terminus assumed) | < 75 | 
CC(C)C[C@H](NC(=O)[C@H](CC(C)C)NC(=O)[C@H](CC(C)C)NC(=O)[C@@H]1CCCN1C(=O)[C@H](CO)NC(=O)[C@H](CC(C)C)NC(=O)[C@H](CCC(=O)O)NC(=O)[C@H](CO)NC(=O)[C@H](CCCNC(=N)N)NC(=O)[C@H](CC(=O)O)NC(=O)[C@H](CCCNC(=N)N)NC(=O)[C@H](CC(=O)O)NC(=O)[C@H](CCC(=O)O)NC(=O)[C@@H](N)CC(C)C)C(=O)N[C@@H](CO)C(=O)N[C@H](C(=O)N[C@H](C(=O)N[C@@H](CCC(=O)O)C(=O)N[C@@H](Cc1c[nH]c2ccccc12)C(=O)O)[C@@H](C)O)[C@@H](C)O [Peptide 1624] (H-LEDRDRSELSPLLLSTTEW-OH; N-terminus and C-terminus assumed) |  | ~80
CC[C@H](C)[C@H](NC(=O)[C@H](CC(N)=O)NC(=O)[C@@H](NC(=O)[C@@H](NC(=O)CNC(=O)[C@H](C)NC(=O)[C@H](C)NC(=O)[C@H](C)NC(=O)[C@H](CCC(N)=O)NC(=O)[C@H](C)NC(=O)[C@@H](NC(=O)CNC(=O)[C@H](C)NC(=O)CNC(=O)[C@H](CO)NC(=O)CNC(=O)[C@@H](N)[C@@H](C)O)[C@@H](C)CC)[C@@H](C)O)C(C)C)C(=O)O [Peptide 1236] | < 75 | 
